Test results published in the supplement of paper PMC10849652.
The list shows a part of the results.

By UniProt entry, the sequences of proteins in these tests, tags left out. Where a name states a change or a piece, a line headed by the entry shows the natural chain unless it says otherwise.
UniProt Q13535: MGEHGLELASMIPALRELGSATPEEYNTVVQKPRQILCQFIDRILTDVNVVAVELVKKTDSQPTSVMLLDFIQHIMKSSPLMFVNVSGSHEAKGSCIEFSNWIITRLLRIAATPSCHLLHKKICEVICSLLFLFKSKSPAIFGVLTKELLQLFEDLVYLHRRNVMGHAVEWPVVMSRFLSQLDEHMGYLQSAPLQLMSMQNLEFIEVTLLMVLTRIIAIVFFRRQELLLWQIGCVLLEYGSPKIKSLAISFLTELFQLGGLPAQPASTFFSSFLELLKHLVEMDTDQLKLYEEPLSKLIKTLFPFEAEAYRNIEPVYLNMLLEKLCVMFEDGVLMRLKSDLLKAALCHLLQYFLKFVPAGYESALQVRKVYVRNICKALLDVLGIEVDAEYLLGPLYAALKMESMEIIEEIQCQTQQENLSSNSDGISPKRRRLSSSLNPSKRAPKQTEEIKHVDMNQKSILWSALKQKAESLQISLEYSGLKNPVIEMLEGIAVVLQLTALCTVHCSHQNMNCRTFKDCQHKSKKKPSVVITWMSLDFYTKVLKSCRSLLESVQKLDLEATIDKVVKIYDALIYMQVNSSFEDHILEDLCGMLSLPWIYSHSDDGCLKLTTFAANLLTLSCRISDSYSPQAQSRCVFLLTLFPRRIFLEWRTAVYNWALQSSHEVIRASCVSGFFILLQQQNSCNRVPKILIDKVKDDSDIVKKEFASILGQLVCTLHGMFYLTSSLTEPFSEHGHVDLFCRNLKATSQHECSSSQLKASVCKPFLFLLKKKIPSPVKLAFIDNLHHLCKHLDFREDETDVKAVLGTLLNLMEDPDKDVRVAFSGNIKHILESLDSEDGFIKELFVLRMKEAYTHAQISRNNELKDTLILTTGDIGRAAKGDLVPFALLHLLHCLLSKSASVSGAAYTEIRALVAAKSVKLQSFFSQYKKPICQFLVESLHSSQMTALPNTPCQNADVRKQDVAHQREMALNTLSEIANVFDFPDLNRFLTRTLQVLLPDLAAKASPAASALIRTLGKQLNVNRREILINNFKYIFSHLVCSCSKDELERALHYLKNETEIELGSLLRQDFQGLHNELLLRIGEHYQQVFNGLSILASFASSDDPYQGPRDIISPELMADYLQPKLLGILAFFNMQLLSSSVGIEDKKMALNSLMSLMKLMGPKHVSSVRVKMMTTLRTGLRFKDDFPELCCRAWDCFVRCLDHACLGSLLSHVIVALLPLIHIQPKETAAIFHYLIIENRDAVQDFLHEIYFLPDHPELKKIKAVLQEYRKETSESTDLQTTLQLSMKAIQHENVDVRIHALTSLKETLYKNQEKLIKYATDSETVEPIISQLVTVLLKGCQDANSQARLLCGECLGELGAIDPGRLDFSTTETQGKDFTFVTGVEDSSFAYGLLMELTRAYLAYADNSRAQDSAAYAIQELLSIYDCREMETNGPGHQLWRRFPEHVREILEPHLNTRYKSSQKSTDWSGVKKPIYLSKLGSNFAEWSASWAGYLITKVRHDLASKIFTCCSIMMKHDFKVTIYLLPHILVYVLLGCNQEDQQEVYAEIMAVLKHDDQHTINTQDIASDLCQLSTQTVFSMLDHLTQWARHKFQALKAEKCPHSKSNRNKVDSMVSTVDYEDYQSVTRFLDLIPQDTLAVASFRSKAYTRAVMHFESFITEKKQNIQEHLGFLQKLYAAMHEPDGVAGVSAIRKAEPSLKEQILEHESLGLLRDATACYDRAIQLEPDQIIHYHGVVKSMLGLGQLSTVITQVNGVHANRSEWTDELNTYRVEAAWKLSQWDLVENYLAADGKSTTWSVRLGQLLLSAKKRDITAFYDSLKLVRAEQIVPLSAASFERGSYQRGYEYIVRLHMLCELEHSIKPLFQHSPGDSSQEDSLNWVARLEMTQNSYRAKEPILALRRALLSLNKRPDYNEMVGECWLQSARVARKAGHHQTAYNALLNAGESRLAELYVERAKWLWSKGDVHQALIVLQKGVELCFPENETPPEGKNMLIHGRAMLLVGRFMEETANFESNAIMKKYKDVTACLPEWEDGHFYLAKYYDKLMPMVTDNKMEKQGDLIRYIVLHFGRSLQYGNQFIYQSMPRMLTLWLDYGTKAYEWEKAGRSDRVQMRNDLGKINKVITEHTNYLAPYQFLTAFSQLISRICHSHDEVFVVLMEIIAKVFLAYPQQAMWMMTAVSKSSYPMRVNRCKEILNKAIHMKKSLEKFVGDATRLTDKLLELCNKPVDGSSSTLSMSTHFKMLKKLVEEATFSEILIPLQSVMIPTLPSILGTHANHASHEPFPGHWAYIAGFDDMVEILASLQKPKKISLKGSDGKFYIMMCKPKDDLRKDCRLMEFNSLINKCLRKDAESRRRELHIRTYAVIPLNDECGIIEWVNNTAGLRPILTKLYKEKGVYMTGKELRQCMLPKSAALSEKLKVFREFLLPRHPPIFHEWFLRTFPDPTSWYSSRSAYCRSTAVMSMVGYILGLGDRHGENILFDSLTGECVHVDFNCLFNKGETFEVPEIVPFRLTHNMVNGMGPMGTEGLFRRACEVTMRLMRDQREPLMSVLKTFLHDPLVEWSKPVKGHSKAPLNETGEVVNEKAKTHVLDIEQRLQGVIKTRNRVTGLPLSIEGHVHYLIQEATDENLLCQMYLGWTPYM
UniProt Q15059, whole entry, looked up: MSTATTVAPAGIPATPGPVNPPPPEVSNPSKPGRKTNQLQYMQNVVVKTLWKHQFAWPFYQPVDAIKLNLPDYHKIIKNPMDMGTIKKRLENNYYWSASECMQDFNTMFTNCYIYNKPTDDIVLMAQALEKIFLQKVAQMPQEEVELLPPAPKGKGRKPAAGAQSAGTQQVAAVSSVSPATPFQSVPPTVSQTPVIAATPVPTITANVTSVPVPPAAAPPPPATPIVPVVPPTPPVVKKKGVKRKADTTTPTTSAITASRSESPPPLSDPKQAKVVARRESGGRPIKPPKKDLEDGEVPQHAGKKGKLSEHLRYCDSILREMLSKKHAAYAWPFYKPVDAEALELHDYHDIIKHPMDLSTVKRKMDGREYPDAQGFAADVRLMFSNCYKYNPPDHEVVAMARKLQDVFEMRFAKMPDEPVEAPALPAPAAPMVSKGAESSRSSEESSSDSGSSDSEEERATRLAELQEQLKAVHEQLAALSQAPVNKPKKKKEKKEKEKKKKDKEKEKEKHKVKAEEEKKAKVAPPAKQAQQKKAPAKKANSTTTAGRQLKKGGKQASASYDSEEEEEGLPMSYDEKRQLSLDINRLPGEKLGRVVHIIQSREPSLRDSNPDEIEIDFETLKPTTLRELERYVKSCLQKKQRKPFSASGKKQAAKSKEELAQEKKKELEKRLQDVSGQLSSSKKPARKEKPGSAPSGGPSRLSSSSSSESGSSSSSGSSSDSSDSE
UniProt Q8WXE1: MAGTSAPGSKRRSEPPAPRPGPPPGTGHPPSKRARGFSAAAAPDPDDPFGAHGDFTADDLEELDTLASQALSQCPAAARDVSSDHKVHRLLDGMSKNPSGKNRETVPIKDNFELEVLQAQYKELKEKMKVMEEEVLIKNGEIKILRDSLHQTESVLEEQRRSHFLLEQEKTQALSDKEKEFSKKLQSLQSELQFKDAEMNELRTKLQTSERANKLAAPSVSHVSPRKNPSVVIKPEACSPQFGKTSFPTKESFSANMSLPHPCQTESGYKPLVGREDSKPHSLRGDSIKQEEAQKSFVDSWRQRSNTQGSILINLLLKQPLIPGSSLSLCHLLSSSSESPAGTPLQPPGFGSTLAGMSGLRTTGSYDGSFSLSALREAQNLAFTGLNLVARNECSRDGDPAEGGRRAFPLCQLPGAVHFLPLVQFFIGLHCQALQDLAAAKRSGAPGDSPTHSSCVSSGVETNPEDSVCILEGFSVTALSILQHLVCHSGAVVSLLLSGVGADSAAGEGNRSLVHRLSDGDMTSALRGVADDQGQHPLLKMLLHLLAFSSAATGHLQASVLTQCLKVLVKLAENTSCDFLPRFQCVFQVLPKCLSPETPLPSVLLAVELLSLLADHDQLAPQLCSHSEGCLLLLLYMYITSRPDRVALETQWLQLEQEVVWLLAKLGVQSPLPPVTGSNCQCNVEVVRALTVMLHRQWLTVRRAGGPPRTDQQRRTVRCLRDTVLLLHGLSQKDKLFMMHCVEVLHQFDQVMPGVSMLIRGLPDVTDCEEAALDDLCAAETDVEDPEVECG
UniProt Q07812, whole entry, looked up: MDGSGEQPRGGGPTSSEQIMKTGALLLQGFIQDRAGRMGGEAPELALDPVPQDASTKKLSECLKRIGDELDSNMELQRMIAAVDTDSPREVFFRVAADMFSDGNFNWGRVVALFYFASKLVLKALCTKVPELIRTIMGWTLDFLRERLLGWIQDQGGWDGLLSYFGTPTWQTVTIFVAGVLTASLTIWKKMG
UniProt P53004: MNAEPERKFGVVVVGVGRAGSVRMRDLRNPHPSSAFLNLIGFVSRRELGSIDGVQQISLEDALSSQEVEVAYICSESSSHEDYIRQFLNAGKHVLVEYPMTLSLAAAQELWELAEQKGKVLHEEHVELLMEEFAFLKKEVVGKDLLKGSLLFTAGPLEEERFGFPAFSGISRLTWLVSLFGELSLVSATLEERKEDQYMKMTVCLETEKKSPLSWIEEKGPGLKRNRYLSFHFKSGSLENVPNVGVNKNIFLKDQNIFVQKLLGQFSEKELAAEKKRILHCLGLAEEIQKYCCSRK
UniProt P07738: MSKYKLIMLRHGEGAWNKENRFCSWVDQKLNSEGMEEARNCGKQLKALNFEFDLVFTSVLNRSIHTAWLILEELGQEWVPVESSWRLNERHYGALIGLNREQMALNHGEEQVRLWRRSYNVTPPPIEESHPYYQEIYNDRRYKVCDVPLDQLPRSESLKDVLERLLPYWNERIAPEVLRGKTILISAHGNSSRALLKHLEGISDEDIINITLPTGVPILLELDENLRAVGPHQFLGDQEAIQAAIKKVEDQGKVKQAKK
UniProt Q6QNY0: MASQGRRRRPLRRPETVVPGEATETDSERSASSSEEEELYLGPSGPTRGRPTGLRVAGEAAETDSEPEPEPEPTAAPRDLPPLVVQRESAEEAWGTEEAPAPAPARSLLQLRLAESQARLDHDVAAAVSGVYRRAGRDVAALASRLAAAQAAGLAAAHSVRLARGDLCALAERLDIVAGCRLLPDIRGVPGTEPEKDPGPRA
UniProt Q8WWM7: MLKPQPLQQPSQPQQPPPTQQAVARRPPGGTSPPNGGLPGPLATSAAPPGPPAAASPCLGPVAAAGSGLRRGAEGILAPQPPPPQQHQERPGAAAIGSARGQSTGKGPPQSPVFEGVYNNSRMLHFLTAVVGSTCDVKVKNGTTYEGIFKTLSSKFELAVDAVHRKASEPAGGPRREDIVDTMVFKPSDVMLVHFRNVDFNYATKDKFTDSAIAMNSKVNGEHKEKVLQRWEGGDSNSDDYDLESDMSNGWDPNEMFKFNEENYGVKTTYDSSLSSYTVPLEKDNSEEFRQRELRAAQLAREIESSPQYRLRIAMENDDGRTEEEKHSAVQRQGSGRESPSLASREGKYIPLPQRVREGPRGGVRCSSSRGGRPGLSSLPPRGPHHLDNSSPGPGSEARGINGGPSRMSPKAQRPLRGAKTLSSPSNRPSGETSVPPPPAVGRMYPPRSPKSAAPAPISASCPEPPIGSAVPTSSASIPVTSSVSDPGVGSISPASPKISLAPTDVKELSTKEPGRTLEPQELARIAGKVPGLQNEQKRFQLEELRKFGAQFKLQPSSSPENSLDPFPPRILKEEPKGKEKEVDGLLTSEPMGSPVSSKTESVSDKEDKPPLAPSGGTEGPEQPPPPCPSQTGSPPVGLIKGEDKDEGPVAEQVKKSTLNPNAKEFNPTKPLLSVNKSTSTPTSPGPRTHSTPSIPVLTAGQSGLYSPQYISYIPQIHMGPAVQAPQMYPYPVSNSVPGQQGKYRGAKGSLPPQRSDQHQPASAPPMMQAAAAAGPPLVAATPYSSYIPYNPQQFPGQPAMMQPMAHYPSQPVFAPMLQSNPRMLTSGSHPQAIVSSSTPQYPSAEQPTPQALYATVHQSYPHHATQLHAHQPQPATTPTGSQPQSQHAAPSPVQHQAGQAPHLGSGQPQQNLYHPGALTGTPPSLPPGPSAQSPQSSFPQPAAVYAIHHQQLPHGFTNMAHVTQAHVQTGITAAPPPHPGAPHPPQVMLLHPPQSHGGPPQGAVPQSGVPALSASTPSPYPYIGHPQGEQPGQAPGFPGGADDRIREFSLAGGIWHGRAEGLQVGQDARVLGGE
UniProt Q9H3K6: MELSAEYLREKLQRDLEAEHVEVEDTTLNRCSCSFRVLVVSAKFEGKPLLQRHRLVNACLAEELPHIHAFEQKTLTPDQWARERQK
UniProt O95999: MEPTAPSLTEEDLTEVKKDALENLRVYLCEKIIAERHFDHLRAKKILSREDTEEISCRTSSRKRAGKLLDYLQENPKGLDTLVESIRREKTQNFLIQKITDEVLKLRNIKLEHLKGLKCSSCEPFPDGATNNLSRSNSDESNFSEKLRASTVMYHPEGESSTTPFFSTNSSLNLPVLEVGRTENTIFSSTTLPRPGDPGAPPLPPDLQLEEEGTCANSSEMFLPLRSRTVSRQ

What follows are targets tested with Cc1nc(Nc2n[nH]c3c2CN(C(=O)N[C@H](CN(C)C)c2ccccc2)C3(C)C)c2sccc2n1 (assay: log2 fold change, soluble protein after heating vs DMSO (PISA); higher = thermal stabilisation; K562 cells, 10 uM, 30 min; active = over 0.2 and 3.5 SD of the protein, either way, in both replicates (recomputed)).
Method in brief: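 K562 cells at 2×10^6 cells/mL were exposed to 10 μM compound for 30 min, then aliquots were heated for 3 min across 48°C-58°C, pooled, and extracted in PBS containing 0.5% NP-40 at 4°C. The supernatant after 21,000xg for 90 min was taken as soluble protein and measured by TMTpro 16plex LC-MS/MS with channel sums equalised. Thermal stability is reported relative to control samples, with values from duplicates. Fold changes are given on a log2 scale.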

log2 fold change, inactive:
ATR (UniProt Q13535) 0.036
BRD3 (UniProt Q15059) -0.031
BRIP1 (UniProt Q9BX63) 0.036
B2M (UniProt P61769) -0.058
BAG4 (UniProt O95429) -0.058
ATRIP (UniProt Q8WXE1) 0.021
BAG1 (UniProt Q99933) -0.028
BLOC1S4 (UniProt Q9NUP1) -0.01
BAX isoform 2 (UniProt Q07812) -0.015
ATRN (UniProt O75882) -0.055
BCAP31 isoform 2 (UniProt P51572) 0.005
BLVRA (UniProt P53004) -0.008
BPGM (UniProt P07738) -0.008
BLOC1S3 (UniProt Q6QNY0) 0.031
ATRAID isoform 3 (UniProt Q6UW56) 0.082
ATXN2L (UniProt Q8WWM7) -0.034
BOLA2 (UniProt Q9H3K6) -0.029
B4GAT1 (UniProt O43505) 0.28
BABAM2 (UniProt Q9NXR7) -0.014
BRIX1 (UniProt Q8TDN6) -0.077
BCL10 (UniProt O95999) -0.114
BROX (UniProt Q5VW32) -0.034
BBC3 (UniProt Q9BXH1) 0.004

Random excerpt: 2 entries already listed, in no set order.
log2 fold change, inactive:
BABAM2 (UniProt Q9NXR7) -0.014
BAG1 (UniProt Q99933) -0.028
